# Drug screen on melanoma cell lines: apoptosis marker

From a melanoma drug combination screen (doi:10.1371/journal.pone.0140310); values rounded.

Compounds and concentrations:
cisplatin (8000 nM): N.N.[Cl][Pt][Cl]
selumetinib (75 nM): Cn1cnc2c(F)c(Nc3ccc(Br)cc3Cl)c(C(=O)NOCCO)cc21
darinaparsin (2000 nM): C[As](C)SC[C@H](NC(=O)CC[C@H](N)C(=O)O)C(=O)NCC(=O)O
vorinostat (400 nM): O=C(CCCCCCC(=O)Nc1ccccc1)NO
enzastaurin (4000 nM): Cn1cc(C2=C(c3cn(C4CCN(Cc5ccccn5)CC4)c4ccccc34)C(=O)NC2=O)c2ccccc21
GW441756 (2000 nM): Cn1cc(/C=C2\C(=O)Nc3cccnc32)c2ccccc21
PF-562271 (400 nM): CN(c1ncccc1CNc1nc(Nc2ccc3c(c2)CC(=O)N3)ncc1C(F)(F)F)S(C)(=O)=O
dovitinib (500 nM): CN1CCN(c2ccc3nc(-c4c(N)c5c(F)cccc5[nH]c4=O)[nH]c3c2)CC1
pazopanib (2000 nM): Cc1ccc(Nc2nccc(N(C)c3ccc4c(C)n(C)nc4c3)n2)cc1S(N)(=O)=O
vincristine (0.5 nM): CC[C@]1(O)C[C@H]2CN(CCc3c([nH]c4ccccc34)[C@@](C(=O)OC)(c3cc4c(cc3OC)N(C=O)[C@H]3[C@@](O)(C(=O)OC)[C@H](OC(C)=O)[C@]5(CC)C=CCN6CC[C@]43[C@@H]65)C2)C1
STA-4783 (30 nM): CN(NC(=O)CC(=O)NN(C)C(=S)c1ccccc1)C(=S)c1ccccc1
lenalidomide (5000 nM): Nc1cccc2c1CN(C1CCC(=O)NC1=O)C2=O (stereo unspecified)
MK-1775 (100 nM): C=CCn1c(=O)c2cnc(Nc3ccc(N4CCN(C)CC4)cc3)nc2n1-c1cccc(C(C)(C)O)n1
nilotinib (1000 nM): Cc1cn(-c2cc(NC(=O)c3ccc(C)c(Nc4nccc(-c5cccnc5)n4)c3)cc(C(F)(F)F)c2)cn1
BI-78D3 (1000 nM): O=c1[nH]nc(Sc2ncc([N+](=O)[O-])s2)n1-c1ccc2c(c1)OCCO2
cediranib (2000 nM): COc1cc2c(Oc3ccc4[nH]c(C)cc4c3F)ncnc2cc1OCCCN1CCCC1
CP-690550 (5000 nM): C[C@@H]1CCN(C(=O)CC#N)C[C@@H]1N(C)c1ncnc2[nH]ccc12
indole-3-carbinol (4000 nM): OCc1c[nH]c2ccccc12
PD173074 (500 nM): CCN(CC)CCCCNc1ncc2cc(-c3cc(OC)cc(OC)c3)c(NC(=O)NC(C)(C)C)nc2n1

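The test systems are human melanoma cell lines, treated with a pair of drugs for 72 h and then stained and imaged. Each value is the cleaved-PARP-positive fraction of nuclei relative to DMSO-treated wells, in %, so that 100 equals the control and higher values mean more apoptosis. Concentrations were fixed for each drug; these are the higher of two levels. The file gives one value for each pair and line, without errors, so small differences may be noise. Basal and induced levels differ widely between cell lines.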
This is part of the screen, not chosen by result.
A dash means that no value is listed here.

| # | Pair | C32 | RPMI-7951 | WM3526 | MZ2-MEL | G-361 | A101D | UACC-257 | WM1745 | 501mel | A375 | LB2518-MEL | RVH-421 | IPC-298 | LOX IMVI | COLO 800 |
|---|---|---|---|---|---|---|---|---|---|---|---|---|---|---|---|---|
| 1 | darinaparsin + MK-1775 | 121 | 173 | 485 | 55.4 | 109 | 170 | 70.4 | 180 | - | - | 276 | 122 | 53.6 | 221 | 73.3 |
| 2 | cisplatin + indole-3-carbinol | 185 | 90.5 | 152 | 90.9 | 54.2 | 188 | 328 | 85.3 | - | 214 | 168 | 62.6 | 189 | 76.3 | 45.3 |
| 3 | vincristine + cisplatin | 489 | 183 | 397 | 116 | 178 | 189 | 87.2 | 103 | - | 301 | 68.8 | 50.7 | 161 | 60.9 | 133 |
| 4 | dovitinib + vorinostat | 71.2 | 211 | 95.4 | 334 | 430 | 69.8 | 234 | 144 | - | - | 284 | 81.0 | 66.3 | 160 | 129 |
| 5 | dovitinib + darinaparsin | 290 | 138 | 220 | 297 | 197 | 117 | 54.1 | 168 | - | 216 | 220 | 195 | 238 | 87.3 | 241 |
| 6 | MK-1775 + BI-78D3 | 130 | 227 | 240 | - | 50.0 | 302 | 96.8 | 128 | - | - | - | 50.5 | 85.5 | 59.3 | 59.2 |
| 7 | nilotinib + PD173074 | 83.2 | 230 | 162 | 78.3 | 101 | 82.5 | 60.1 | - | 124 | 64.2 | 109 | 151 | 57.0 | 164 | 66.5 |
| 8 | GW441756 + cediranib | 214 | 91.7 | 108 | 78.9 | 106 | 153 | 61.0 | 156 | 75.2 | 36.5 | 145 | 131 | 98.3 | 76.0 | 269 |
| 9 | lenalidomide + BI-78D3 | 179 | 220 | 169 | 120 | 74.1 | 82.4 | 77.3 | 111 | - | 109 | 61.8 | 62.0 | 172 | 24.5 | 152 |
| 10 | CP-690550 + cediranib | 100 | 135 | 61.0 | 119 | 137 | 154 | 138 | 140 | - | - | 49.5 | 221 | 74.6 | 451 | 93.4 |
| 11 | selumetinib + lenalidomide | 36.2 | 38.4 | 345 | 206 | 217 | 80.4 | 82.6 | 111 | - | 136 | 118 | 53.4 | 136 | 69.2 | 40.7 |
| 12 | pazopanib + PF-562271 | 302 | 416 | 74.7 | 97.2 | 211 | 204 | 38.0 | 135 | - | 109 | 106 | 138 | 92.8 | 68.0 | 55.1 |
| 13 | selumetinib + BI-78D3 | 40.9 | 82.0 | 235 | 389 | 227 | 153 | 109 | 98.5 | - | 516 | 421 | 91.4 | 181 | 181 | 159 |
| 14 | vincristine + dovitinib | 346 | 658 | 2020 | 415 | 179 | 163 | 30.5 | 190 | - | 90.3 | 63.0 | 97.8 | 213 | 362 | 135 |
| 15 | PD173074 + BI-78D3 | 167 | 162 | 88.3 | 58.5 | 150 | 122 | 79.8 | - | 154 | 60.5 | 58.4 | 70.3 | 27.2 | 177 | 92.7 |
| 16 | vorinostat + STA-4783 | 1990 | 109 | 99.9 | 42.9 | 797 | 232 | 56.5 | 225 | - | - | 1680 | 335 | 104 | 178 | 638 |
| 17 | darinaparsin + enzastaurin | 158 | 405 | 397 | 118 | 142 | 166 | 34.1 | 170 | - | 144 | 163 | 380 | 272 | 56.8 | 88.9 |
| 18 | enzastaurin + selumetinib | 63.0 | 238 | 196 | 57.3 | 129 | 113 | 128 | 110 | - | 79.7 | 49.7 | 398 | 116 | 99.4 | 142 |
| 19 | pazopanib + vincristine | 54.3 | 193 | 680 | 108 | 98.0 | 99.2 | 82.5 | 108 | - | 85.8 | 261 | 329 | 54.6 | 105 | 29.2 |
| 20 | selumetinib + darinaparsin | 138 | 334 | 136 | 287 | 265 | 190 | 105 | 115 | - | 148 | 276 | 152 | 91.3 | 333 | 163 |
| 21 | darinaparsin + lenalidomide | 41.9 | 185 | 116 | 81.2 | 89.6 | 56.4 | 63.6 | 92.6 | - | 84.8 | 36.9 | 217 | 135 | 169 | 115 |
| 22 | STA-4783 + MK-1775 | 4780 | 155 | 182 | - | 811 | 201 | 119 | 257 | - | - | - | 355 | 250 | 131 | 307 |
| 23 | CP-690550 + PF-562271 | 66.6 | 68.2 | 49.4 | 152 | 90.2 | 122 | 146 | 82.6 | - | - | 110 | 79.3 | 56.5 | 98.8 | 37.5 |
| 24 | selumetinib + PD173074 | 106 | 101 | 277 | 153 | 363 | 52.0 | 46.7 | - | 307 | 183 | 391 | 329 | 67.9 | 179 | 88.4 |
| 25 | nilotinib + STA-4783 | 4110 | 87.8 | 180 | 164 | 1120 | 135 | 81.2 | 362 | - | - | 648 | 152 | 85.6 | 42.0 | 347 |
| 26 | PD173074 + PF-562271 | 116 | 69.7 | 122 | 284 | 261 | 31.4 | 145 | - | 199 | 167 | 384 | 215 | 76.1 | 255 | 152 |
| 27 | STA-4783 + dovitinib | 1900 | 90.0 | 117 | 181 | 683 | 167 | 80.7 | 304 | - | - | 279 | 233 | 99.3 | 74.2 | 588 |
| 28 | MK-1775 + dovitinib | 332 | 37.4 | 282 | 187 | 342 | 158 | 146 | 166 | - | - | 85.7 | 868 | 242 | 194 | 125 |
| 29 | vincristine + vorinostat | 24.9 | 237 | 587 | 154 | 102 | 397 | 102 | 120 | - | - | 64.6 | 188 | 189 | 104 | 117 |
| 30 | PF-562271 + cisplatin | 728 | 135 | 157 | 161 | 156 | 96.9 | 372 | 140 | - | 288 | 37.1 | 216 | 108 | 51.8 | 249 |
| 31 | vincristine + darinaparsin | 1810 | 656 | 3210 | 437 | 749 | 233 | 373 | 206 | - | 85.0 | 252 | 1070 | 422 | 384 | 56.4 |
| 32 | darinaparsin + CP-690550 | 81.5 | 238 | 172 | 117 | 125 | 29.5 | 76.4 | 75.8 | - | - | 53.2 | 46.3 | 71.9 | 959 | 82.8 |
| 33 | vorinostat + cediranib | 25.2 | 34.2 | 179 | 209 | 147 | 52.1 | 54.0 | 107 | - | - | 167 | 76.4 | 91.2 | 490 | 112 |
| 34 | MK-1775 + enzastaurin | 219 | 229 | 345 | 43.3 | 87.8 | 319 | 67.9 | 179 | - | - | 146 | 50.2 | 41.0 | 65.6 | 154 |
| 35 | lenalidomide + cisplatin | 19.8 | 107 | 73.9 | 120 | 138 | 106 | 327 | 140 | - | 208 | 192 | 399 | 78.3 | 45.7 | 38.5 |
| 36 | nilotinib + vorinostat | 127 | 49.5 | 127 | 50.7 | 140 | 86.2 | 183 | 78.4 | - | - | 58.3 | 153 | 93.8 | 68.8 | 137 |
| 37 | GW441756 + indole-3-carbinol | 85.6 | 135 | 158 | 26.4 | 82.3 | 155 | 51.4 | - | 47.7 | 42.1 | 111 | 177 | 42.4 | 165 | 179 |
| 38 | pazopanib + lenalidomide | 177 | 167 | 138 | 41.1 | 125 | 74.0 | 131 | 101 | - | 31.2 | 50.8 | 220 | 149 | 102 | 100 |

Some entries from above, unchanged:

| Pair | C32 | RPMI-7951 | WM3526 | MZ2-MEL | G-361 | A101D | UACC-257 | WM1745 | 501mel | A375 | LB2518-MEL | RVH-421 | IPC-298 | LOX IMVI | COLO 800 |
|---|---|---|---|---|---|---|---|---|---|---|---|---|---|---|---|
| selumetinib + PD173074 | 106 | 101 | 277 | 153 | 363 | 52.0 | 46.7 | - | 307 | 183 | 391 | 329 | 67.9 | 179 | 88.4 |
| enzastaurin + selumetinib | 63.0 | 238 | 196 | 57.3 | 129 | 113 | 128 | 110 | - | 79.7 | 49.7 | 398 | 116 | 99.4 | 142 |
| vincristine + dovitinib | 346 | 658 | 2020 | 415 | 179 | 163 | 30.5 | 190 | - | 90.3 | 63.0 | 97.8 | 213 | 362 | 135 |